The supplement of paper PMC12819154, “High-throughput peptide-centric local stability assay extends protein–ligand identification to membrane proteins, tissues and bacteria” (Nature Structural & Molecular Biology, 2025)
The other results are listed elsewhere or left out. Most entries show no effect beyond the scatter of the controls.

Amino acid sequences for entries named in this document (tags omitted). A change or cut given only in a name is not applied to a line headed by its entry.
UniProt Q8VCX1: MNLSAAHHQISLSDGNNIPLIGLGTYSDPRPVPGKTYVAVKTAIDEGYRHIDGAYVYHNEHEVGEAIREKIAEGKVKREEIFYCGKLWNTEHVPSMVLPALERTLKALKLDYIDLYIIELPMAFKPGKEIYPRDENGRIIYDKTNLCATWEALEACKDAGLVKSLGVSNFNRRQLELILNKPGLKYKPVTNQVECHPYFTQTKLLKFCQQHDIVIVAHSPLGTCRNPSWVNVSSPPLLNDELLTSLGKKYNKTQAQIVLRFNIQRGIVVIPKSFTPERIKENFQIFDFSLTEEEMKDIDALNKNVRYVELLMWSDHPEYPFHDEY
UniProt Q8R332: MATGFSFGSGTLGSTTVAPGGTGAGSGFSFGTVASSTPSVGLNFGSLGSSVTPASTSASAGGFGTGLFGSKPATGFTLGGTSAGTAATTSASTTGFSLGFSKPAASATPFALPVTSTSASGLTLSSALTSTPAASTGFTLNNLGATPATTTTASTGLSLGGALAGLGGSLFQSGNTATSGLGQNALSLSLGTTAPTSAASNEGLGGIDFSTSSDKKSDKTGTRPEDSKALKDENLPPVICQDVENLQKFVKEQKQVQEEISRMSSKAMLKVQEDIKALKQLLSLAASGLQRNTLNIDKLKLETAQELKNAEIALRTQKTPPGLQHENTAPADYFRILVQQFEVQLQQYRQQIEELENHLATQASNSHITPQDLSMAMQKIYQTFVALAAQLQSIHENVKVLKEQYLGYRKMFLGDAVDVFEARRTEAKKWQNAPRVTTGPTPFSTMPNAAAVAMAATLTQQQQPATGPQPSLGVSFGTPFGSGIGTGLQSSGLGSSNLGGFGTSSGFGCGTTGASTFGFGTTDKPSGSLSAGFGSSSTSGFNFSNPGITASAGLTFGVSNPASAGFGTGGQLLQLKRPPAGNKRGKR
UniProt Q8R367: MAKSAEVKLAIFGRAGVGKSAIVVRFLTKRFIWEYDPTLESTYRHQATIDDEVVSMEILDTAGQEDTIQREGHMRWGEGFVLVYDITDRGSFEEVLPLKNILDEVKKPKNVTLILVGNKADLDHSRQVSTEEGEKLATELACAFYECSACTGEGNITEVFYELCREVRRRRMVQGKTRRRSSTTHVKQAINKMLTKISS
UniProt Q8R2S9, whole entry: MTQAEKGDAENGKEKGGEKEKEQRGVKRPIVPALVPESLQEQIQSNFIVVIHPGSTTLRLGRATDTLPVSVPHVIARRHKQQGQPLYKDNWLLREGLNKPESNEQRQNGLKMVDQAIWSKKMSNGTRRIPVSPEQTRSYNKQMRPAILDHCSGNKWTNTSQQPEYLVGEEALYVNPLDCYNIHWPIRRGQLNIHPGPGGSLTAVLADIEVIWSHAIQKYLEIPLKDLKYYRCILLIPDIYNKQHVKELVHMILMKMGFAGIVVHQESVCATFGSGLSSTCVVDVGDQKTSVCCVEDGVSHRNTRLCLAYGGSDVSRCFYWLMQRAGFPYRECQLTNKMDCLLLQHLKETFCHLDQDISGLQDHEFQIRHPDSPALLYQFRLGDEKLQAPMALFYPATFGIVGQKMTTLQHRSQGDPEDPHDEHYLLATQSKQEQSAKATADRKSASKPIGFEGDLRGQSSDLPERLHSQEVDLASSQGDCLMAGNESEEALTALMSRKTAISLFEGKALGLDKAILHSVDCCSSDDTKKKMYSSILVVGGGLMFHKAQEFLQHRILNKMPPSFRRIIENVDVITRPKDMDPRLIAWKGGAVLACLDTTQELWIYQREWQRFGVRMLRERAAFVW
UniProt Q8VCE1: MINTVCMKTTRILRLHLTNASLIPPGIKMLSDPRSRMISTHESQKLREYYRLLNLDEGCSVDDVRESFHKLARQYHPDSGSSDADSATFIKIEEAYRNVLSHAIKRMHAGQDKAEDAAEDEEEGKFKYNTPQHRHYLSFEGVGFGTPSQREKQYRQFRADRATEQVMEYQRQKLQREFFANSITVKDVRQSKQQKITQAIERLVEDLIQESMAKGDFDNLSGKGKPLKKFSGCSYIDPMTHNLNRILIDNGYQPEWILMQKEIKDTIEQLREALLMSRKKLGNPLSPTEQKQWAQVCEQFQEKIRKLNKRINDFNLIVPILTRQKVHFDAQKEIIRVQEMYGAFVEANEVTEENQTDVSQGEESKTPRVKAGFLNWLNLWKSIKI
UniProt Q8R3Y5: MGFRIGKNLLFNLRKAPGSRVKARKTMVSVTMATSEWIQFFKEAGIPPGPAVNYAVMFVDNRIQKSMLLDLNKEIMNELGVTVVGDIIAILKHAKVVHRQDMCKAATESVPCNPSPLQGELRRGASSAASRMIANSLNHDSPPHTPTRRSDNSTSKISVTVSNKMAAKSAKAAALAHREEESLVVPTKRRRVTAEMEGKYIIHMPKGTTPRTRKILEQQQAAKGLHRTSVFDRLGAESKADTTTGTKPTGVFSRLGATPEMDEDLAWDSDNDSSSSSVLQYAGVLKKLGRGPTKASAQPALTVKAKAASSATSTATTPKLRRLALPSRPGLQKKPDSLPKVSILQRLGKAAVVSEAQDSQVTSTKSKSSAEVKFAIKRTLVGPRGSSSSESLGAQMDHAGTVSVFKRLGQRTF
UniProt Q8VDG3: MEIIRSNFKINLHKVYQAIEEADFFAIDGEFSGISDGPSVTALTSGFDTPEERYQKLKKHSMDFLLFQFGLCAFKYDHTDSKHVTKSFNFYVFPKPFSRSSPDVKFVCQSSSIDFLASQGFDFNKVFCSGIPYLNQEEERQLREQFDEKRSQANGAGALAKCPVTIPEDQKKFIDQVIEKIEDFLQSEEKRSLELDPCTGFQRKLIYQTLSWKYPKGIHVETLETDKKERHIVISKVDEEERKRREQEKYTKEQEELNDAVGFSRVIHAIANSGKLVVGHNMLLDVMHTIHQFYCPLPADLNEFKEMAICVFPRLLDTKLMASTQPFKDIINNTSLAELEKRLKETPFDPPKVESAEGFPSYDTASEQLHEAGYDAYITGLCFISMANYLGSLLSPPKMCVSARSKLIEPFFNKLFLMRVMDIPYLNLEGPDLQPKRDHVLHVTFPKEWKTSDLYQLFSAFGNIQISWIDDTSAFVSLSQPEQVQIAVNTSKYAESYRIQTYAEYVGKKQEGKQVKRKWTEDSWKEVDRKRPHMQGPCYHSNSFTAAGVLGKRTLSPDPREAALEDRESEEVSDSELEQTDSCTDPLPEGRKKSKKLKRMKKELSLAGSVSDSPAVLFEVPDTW
UniProt Q8R3P6, whole entry: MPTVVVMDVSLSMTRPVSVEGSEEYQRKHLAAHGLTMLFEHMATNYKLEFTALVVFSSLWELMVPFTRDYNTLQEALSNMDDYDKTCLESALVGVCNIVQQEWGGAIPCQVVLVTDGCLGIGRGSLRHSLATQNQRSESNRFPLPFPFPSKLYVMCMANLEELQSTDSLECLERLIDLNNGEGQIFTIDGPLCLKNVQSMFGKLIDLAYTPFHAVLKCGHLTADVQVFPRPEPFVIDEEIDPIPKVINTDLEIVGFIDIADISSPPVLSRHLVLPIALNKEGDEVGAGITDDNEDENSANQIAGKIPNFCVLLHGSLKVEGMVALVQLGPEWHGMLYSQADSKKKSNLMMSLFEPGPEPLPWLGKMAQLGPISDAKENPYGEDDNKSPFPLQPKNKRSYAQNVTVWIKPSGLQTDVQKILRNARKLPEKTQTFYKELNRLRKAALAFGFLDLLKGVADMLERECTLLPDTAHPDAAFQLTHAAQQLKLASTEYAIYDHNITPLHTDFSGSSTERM
UniProt Q8VBW6: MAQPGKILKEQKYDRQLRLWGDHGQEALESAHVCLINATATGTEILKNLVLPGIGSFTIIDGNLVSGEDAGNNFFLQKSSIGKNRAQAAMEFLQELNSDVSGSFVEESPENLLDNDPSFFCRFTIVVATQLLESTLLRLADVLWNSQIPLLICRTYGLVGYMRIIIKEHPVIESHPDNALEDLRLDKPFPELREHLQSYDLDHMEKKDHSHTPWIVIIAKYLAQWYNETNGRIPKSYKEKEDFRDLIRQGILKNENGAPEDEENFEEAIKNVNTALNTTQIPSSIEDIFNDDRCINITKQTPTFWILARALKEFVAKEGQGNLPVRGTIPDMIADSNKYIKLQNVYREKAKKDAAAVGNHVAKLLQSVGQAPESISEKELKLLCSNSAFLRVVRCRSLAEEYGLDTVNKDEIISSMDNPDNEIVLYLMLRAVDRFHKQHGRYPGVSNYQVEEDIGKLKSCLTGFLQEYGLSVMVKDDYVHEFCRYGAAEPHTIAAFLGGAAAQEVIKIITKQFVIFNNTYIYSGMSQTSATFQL
UniProt Q8VC74: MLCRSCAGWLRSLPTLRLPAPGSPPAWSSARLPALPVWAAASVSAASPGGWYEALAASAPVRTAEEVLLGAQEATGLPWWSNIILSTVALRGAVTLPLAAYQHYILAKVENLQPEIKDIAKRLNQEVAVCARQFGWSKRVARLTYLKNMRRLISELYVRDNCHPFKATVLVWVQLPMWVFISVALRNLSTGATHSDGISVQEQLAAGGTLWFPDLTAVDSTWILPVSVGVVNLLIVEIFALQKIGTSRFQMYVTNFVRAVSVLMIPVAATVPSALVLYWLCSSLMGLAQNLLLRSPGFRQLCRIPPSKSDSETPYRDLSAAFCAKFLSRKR
UniProt Q8VE37: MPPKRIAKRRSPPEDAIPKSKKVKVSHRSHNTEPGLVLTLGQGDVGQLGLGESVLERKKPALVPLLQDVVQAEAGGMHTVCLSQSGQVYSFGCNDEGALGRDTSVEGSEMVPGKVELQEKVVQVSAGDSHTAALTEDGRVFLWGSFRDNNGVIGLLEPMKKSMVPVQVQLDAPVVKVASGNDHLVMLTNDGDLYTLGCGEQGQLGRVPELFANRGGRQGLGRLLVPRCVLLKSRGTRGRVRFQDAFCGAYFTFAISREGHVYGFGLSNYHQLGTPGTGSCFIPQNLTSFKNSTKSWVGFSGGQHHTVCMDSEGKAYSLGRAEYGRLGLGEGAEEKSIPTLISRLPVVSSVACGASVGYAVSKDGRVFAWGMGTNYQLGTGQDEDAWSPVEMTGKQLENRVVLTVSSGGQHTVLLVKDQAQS
UniProt Q8VCD5: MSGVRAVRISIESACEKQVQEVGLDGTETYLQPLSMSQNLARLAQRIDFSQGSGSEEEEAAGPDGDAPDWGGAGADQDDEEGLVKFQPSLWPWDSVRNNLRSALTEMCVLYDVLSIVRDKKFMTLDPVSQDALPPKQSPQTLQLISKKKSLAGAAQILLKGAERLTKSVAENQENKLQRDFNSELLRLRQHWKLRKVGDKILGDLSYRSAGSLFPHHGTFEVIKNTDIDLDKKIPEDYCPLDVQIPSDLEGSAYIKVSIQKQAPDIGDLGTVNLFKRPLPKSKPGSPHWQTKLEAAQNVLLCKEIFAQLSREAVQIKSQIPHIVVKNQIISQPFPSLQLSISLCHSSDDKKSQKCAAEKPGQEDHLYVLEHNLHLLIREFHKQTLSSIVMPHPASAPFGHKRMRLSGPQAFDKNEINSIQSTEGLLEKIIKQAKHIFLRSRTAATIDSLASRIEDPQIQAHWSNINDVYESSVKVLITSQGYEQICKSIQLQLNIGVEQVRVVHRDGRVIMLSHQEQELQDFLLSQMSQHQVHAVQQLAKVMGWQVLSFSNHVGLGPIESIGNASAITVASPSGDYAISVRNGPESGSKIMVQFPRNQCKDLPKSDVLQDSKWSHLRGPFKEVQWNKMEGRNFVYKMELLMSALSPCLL
UniProt Q8VC26: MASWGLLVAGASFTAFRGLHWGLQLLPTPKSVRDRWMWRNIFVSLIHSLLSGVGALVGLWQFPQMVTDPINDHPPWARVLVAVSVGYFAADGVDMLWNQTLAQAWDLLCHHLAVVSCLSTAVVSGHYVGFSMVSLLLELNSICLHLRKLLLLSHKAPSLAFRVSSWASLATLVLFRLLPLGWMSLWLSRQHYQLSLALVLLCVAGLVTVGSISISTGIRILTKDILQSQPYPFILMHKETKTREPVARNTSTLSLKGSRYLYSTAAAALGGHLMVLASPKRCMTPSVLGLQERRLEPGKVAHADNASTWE
UniProt Q8R3P2: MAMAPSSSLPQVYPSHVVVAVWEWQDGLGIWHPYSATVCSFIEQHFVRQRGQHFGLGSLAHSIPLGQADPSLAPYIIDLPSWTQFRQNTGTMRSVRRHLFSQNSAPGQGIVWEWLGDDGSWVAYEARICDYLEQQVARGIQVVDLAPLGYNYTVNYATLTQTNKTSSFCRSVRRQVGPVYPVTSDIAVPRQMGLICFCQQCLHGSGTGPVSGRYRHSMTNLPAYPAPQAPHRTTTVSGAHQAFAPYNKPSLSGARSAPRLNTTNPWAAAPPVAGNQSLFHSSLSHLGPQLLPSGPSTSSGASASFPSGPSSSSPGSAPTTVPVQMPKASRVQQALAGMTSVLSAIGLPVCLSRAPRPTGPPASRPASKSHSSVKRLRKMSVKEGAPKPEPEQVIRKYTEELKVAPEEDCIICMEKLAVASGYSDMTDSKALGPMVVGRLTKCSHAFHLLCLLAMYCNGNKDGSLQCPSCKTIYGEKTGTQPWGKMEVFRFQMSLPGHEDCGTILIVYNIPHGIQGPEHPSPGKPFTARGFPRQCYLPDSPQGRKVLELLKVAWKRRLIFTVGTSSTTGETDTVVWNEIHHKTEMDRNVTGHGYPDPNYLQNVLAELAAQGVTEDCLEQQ

Each target was assayed with CN[C@@H]1C[C@H]2O[C@@](C)([C@@H]1OC)n1c3ccccc3c3c4c(c5c6ccccc6n2c5c31)C(=O)NC4 [staurosporine] (assay: log2 fold change of tryptic peptide abundance, ligand vs vehicle (limited proteolysis) (log2 ratio); higher = more trypsin-susceptible (destabilized)). Conditions: ligand concentration: 20 uM; sample: mouse liver crude lysate; replicate design: treated separately.

Target | log2 fold change
UniProt Q8VCX1 (peptide sequence: EEIFYCGK, peptide start residue: 79) | -0.333
UniProt Q8R332 (peptide sequence: VLKEQYLGYR, peptide start residue: 400) | 0.371
UniProt Q8R367 (peptide sequence: NVTLILVGNK, peptide start residue: 110) | -0.0907
UniProt Q8R2S9 (peptide sequence: IIENVDVITRPK, peptide start residue: 566) | 0.319
UniProt Q8VC42 (peptide sequence: SGGATGVVVK, peptide start residue: 40) | -0.883
UniProt Q8R4X3 (peptide sequence: DEATAAVIDLNDRPIGSR, peptide start residue: 968) | -0.627
UniProt Q8VCE1 (peptide sequence: KKLGNPLSPTEQK, peptide start residue: 279) | -0.607
UniProt Q8R3Y5 (peptide sequence: KILEQQQAAK, peptide start residue: 214) | -0.561
UniProt Q8R519 (peptide sequence: IAHGFNMRPDLCAQDNPSDPR, peptide start residue: 236) | -0.15
UniProt Q8VCS6 (peptide sequence: TKNELLQK, peptide start residue: 123) | -0.0502
UniProt Q8R4P9 (peptide sequence: QLLCLAR, peptide start residue: 1403) | -0.0309
UniProt Q8VDG3 (peptide sequence: CPVTIPEDQKK, peptide start residue: 162) | -0.336
UniProt Q8R349 (peptide sequence: LKCYDFDVHTMK, peptide start residue: 542) | 1.33
UniProt Q8R4Y4 (peptide sequence: SGLSFSRGCSYTCAK, peptide start residue: 1300) | -0.219
UniProt Q8R316 (peptide sequence: LDHPFYVK, peptide start residue: 298) | 0.522
UniProt Q8R3P6 (peptide sequence: HLVLPIALNK, peptide start residue: 271) | 0.773
UniProt Q8VBW6 (peptide sequence: YLAQWYNETNGRIPK, peptide start residue: 221) | 0.371
UniProt Q8VC74 (peptide sequence: DLSAAFCAK, peptide start residue: 317) | -0.283
UniProt Q8VE37 (peptide sequence: VPELFANR, peptide start residue: 207) | -0.232
UniProt Q8VCD5 (peptide sequence: ISIESACEK, peptide start residue: 9) | -0.119
UniProt Q8VC26 (peptide sequence: GLHWGLQLLPTPK, peptide start residue: 18) | 0.459
UniProt Q8R464 (peptide sequence: EAFLNGGDGHK, peptide start residue: 371) | -0.144
UniProt Q8VC12 (peptide sequence: WAGVPHAPVR, peptide start residue: 23) | 0.535
UniProt Q8R3P2 (peptide sequence: HSMTNLPAYPAPQAPHR, peptide start residue: 216) | 0.232
UniProt Q8VD62 (peptide sequence: QLAITHHVLSGK, peptide start residue: 164) | -0.194

Fetched one by one from the list above:
Target | log2 fold change
UniProt Q8VC26 (peptide sequence: GLHWGLQLLPTPK, peptide start residue: 18) | 0.459
UniProt Q8VBW6 (peptide sequence: YLAQWYNETNGRIPK, peptide start residue: 221) | 0.371
